For this assay, the target named is T1, Cdc55 (regulatory subunit of the PP2A-Cdc55 phosphatase), Pk-tagged (S. cerevisiae) (UniProt Q00362).
T1 sequence: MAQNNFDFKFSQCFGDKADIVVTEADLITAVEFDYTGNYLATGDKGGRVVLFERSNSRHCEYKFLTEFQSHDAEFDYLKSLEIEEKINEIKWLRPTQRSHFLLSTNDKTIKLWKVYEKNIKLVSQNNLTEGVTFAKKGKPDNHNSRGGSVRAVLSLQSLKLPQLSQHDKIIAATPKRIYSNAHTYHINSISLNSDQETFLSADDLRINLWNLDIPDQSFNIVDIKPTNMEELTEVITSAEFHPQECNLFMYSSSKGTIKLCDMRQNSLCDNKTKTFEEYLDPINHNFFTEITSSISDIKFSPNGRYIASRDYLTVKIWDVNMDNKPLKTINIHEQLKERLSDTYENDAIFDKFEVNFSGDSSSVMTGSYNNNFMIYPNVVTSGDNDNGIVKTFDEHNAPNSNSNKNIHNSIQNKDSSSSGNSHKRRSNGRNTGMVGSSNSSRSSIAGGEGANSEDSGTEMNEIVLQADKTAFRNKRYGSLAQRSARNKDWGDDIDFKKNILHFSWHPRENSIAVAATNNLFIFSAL
Briefly: co-IP.

Results are given in words; binding and its absence hold for the method and conditions named. In cells and extracts the contact can be indirect. Some entries that bind do so weakly or less than the wild type. Tags and fused reporters may be left off the sequences shown.

B1: Chs2 (chitin synthase II) (enzyme, UniProt P14180 1-963)
chain: MTRNPFMVEPSNGSPNRRGASNLSKFYANANSNSRWANPSEESLEDSYDQSNVFQGLPASPSRAALRYSPDRRHRTQFYRDSAHNSPVAPNRYAANLQESPKRAGEAVIHLSEGSNLYPRDNADLPVDPYHLSPQQQPSNNLFGSGRLYSQSSKYTMSTTSTTAPSLAEADDEKEKYLTSTTSYDDQSTIFSADTFNETKFELNHPTRQQYVRRANSESKRRMVSDLPPPSKKKALLKLDNPIPKGLLDTLPRRNSPEFTEMRYTACTVEPDDFLREGYTLRFAEMNRECQIAICITMYNEDKYSLARTIHSIMKNVAHLCKREKSHVWGPNGWKKVSVILISDGRAKVNQGSLDYLAALGVYQEDMAKASVNGDPVKAHIFELTTQVSINADLDYVSKDIVPVQLVFCLKEENKKKINSHRWLFNAFCPVLQPTVVTLVDVGTRLNNTAIYRLWKVFDMDSNVAGAAGQIKTMKGKWGLKLFNPLVASQNFEYKISNILDKPLESVFGYISVLPGALSAYRYRALKNHEDGTGPLRSYFLGETQEGRDHDVFTANMYLAEDRILCWELVAKRDAKWVLKYVKEATGETDVPEDVSEFISQRRRWLNGAMFAAIYAQLHFYQIWKTKHSVVRKFFLHVEFLYQFIQMLFSWFSIANFVLTFYYLAGSMNLVIKHGEALFIFFKYLIFCDLASLFIISMGNRPQGAKHLFITSMVILSICATYSLICGFVFAFKSLASGTESHKIFVDIVISLLSTYGLYFFSSLMYLDPWHMFTSSIQYFLTLPAFTCTLQIFAFCNTHDVSWGTKGSTQESKQLSKAIVVQGPDGKQIVETDWPQEVDKKFLEIKSRLKEPEFEESSGNEKQSKNDYYRDIRTRIVMIWMLSNLILIMSIIQVFTPQDTDNGYLIFILWSVAALAAFRVVGSMAFLFMKYLRIIVSYRNKVEGSGSWEVSKLDLPNVFHKKG
Take B1: the binding result is “binds”.

Values taken from doi:10.1101/2020.11.27.400903.
